The target in test [1] is T1, mouse tenascin-C rCd4-His-FBG (rat; mouse, UniProt P05540 207-392, limits assumed).
T1 construct: domain: domains 3 and 4; C-terminal FBG fusion; biotinylated in the ELISA screen; also called Mu TNC; mouse TNC rCd4-His-FBG; not shown: 6His tag
T1 sequence (chain (part 1 of 2)): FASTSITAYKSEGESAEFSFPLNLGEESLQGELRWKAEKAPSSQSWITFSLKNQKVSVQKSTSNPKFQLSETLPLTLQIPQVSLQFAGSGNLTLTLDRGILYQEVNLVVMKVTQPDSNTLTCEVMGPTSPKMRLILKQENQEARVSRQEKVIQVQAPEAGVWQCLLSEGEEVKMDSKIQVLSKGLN
T1 sequence (chain (part 2 of 2)): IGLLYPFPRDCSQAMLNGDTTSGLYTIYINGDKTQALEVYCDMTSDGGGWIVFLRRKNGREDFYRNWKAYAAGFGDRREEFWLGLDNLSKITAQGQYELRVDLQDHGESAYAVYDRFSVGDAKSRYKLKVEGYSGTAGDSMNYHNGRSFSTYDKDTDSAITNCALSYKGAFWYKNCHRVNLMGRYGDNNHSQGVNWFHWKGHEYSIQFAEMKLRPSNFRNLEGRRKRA
As to the kind of experiment: SPR, captured purified IgG4, 37 C. The method, then:
Detailed kinetic parameters were evaluated for the 9 prioritised IgG4 antibodies. Binding characteristics were determined for interaction with human, rat and dog TNC rCD4-His-FBG, and human TNR rCD4-His-FBG. Kinetic assays followed essentially the same protocols as for the off-rate determinations described above, with some modifications as follows. […] Purified anti-FBG IgG4 was diluted to a concentration of 3.5 nM in PBS, pH 7.4, 0.05% Tween-20 and injected into FC2 at a flow rate of 10 μl/min, 60 s contact time. […] Antigens were prepared by doubling dilution in PBS, pH 7.4, 0.05% Tween-20 (highest concentration 100 nM except mouse rCD4-His-FBG which was 7 nM). Assays were performed at 37° C. (30 μl/min, 120 s contact time; mouse rCD4-His-FBGFBG 10 μl/min, 60 s contact time), with both the flow cell and injection chamber equilibrated to this temperature. As before, kinetic parameters were determined by reference cell subtraction and fitting the sensogram experimental data assuming a 1:1 interaction using BIAevaluation software (GE, BR-1005-97).
(Surface plasmon resonance follows binding to a sensor surface in real time, without labels.)

Test [2] concerns the target T1, mouse tenascin-C rCd4-His-FBG. Kind of test: ELISA and HTRF screens, scFv. (An ELISA detects its analyte on a solid surface through an enzyme-linked reagent.)
Test [3] has as its target T2, human tenascin-C rCd4-His-FBG (rat; human, UniProt P05540 207-392, limits assumed).
T2 construct: domain: domains 3 and 4; C-terminal FBG fusion; biotinylated in the ELISA and HTRF screens; also called Hu TNC; human TNC rCd4-His-FBG; not shown: 6His tag
T2 sequence (chain (part 1 of 2)): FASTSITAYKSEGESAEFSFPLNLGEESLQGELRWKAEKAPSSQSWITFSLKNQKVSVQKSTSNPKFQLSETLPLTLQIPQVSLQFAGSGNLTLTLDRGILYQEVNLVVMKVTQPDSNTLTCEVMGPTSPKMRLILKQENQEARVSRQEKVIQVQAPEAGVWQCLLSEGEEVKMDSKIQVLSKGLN
T2 sequence (chain (part 2 of 2)): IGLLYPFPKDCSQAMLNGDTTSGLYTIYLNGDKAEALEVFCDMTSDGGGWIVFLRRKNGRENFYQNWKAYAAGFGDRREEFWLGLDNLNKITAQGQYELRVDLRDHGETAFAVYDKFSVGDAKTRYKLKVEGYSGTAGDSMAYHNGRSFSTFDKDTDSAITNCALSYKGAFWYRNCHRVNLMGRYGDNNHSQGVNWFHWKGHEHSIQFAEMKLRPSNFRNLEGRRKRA
As to the kind of experiment: ELISA and HTRF screens, scFv.

No constants are given. Whether binding was seen depends on the method and setting. Some binding calls cover weakened binding; strength is not graded here. Where a sequence is shown, tags or fusion partners need not be part of it.

B1: 165_13_D1 human IgG4 (antibody, V domains shown)
VH: QVQLVESGGGLVQPGRSLRLSCAASGFTFDDYAMHWVRQAPGKGLEWVSGISGSGGSTYYADSVKGRFTISRDNAKNSLYLQMNSLRAEDTALYYCAKGTRGEGDTFDIWGQGTMVTVSS
VL: DIQMTQSPASLPTPVGDRVTITCRASQYIQGFLNWYQQKPGKAPKLLIYDASNLETGVPSRFSGSGSGTDFTLTISSLQPEDFATYYCQQSYSTPQTFGQGTKVDIKR
notes: human IgG4 with hinge S241P
In the case of B1, the binding entry in test [1] is given as “binds”.

B2: 165_13_D1 scFv (scFv, V domains shown, not shown: small tags and cut ends)
VH: QVQLVESGGGLVQPGRSLRLSCAASGFTFDDYAMHWVRQAPGKGLEWVSGISGSGGSTYYADSVKGRFTISRDNAKNSLYLQMNSLRAEDTALYYCAKGTRGEGDTFDIWGQGTMVTVSS
VL: DIQMTQSPASLPTPVGDRVTITCRASQYIQGFLNWYQQKPGKAPKLLIYDASNLETGVPSRFSGSGSGTDFTLTISSLQPEDFATYYCQQSYSTPQTFGQGTKVDIK
notes: E. coli supernatant scFv
With B2, the binding entry in test [2] and in test [3] was “binds” each time.

B3: 165_13_B6 scFv (scFv, V domains shown, not shown: small tags and cut ends)
VH: QVQLVESGGGLVQPGRSLRLSCAASGFTFDDYAMHWVRQAPGKGLEWVSGISGSGGSTYYADSVKGRFTISRDNAKNSLYLQMNSLRAEDTALYYCAKGQKGEGDTFDIWGQGTMVTVSS
VL: DIQMTQSPASLPTPVGDRVTITCRASQYIQGFLNWYQQKPGKAPKLLIYDASNLETGVPSRFSGSGSGTDFTLTISSLQPEDFATYYCQQSYSTPQTFGQGTKVDIK
notes: E. coli supernatant scFv
Turning to B3, the binding result in test [2] and in test [3] was “binds” in each case.

B4: 165_13_B1 scFv (scFv, V domains shown, not shown: small tags and cut ends)
VH: QVQLVESGGGLVQPGRSLRLSCAASGFTFDDYAMHWVRQAPGKGLEWVSGISGSGGSTYYADSVKGRFTISRDNAKNSLYLQMNSLRAEDTALYYCAKVMSSMEDAFDIWGQGTMVTVSS
VL: DIQMTQSPASLPTPVGDRVTITCRASQYIQGFLNWYQQKPGKAPKLLIYDASNLETGVPSRFSGSGSGTDFTLTISSLQPEDFATYYCQQSYSTPQTFGQGTKVDIK
notes: E. coli supernatant scFv
Consider B4, for which the binding entry in test [2] and in test [3] was “binds” each time.

B5: 161_01_H10 human IgG4 (antibody, V domains shown)
VH: EVRLVQSGAEVKKPGASVKVSCKVSGYTLTELSMHWVRQAPGKGLEWMGGFDPEDGETIYAQKFQGRVTMTEDTSTDTAYMELSSLRSEDTAVYYCATAQPVWAPGTYWGQGTLVTVSS
VL: DIQMTQSPASLPTSVGDRVTITCRASQYIQGFLNWYQQKPGKAPRLLIYAASTLQDGVPSRFSGSGYGTDFTLTISSLQPEDFATYYCQQSYSTPWTFGQGTKVEIKR
notes: human IgG4 with hinge S241P; also called Antibody 161 01 H10 (derived from 2A5)
With B5, the binding result in test [1] is “binds”.

B6: 160_01_A4 scFv (scFv, V domains shown, not shown: small tags and cut ends)
VH: EVRLVQSGAEVKKPGASVKVSCKVSGYTLTELSMHWVRQAPGKGLEWMGGFDPEDGETIYAQKFQGRVTMTEDTSTDTAYMELSSLRSEDTAVYYCATAQKETLGNAIWGQGTLVTVSS
VL: DIQMTQSPASLPTSVGDRVTITCRASQYIQGFLNWYQQKPGKAPRLLIYAASTLQDGVPSRFSGSGYGTDFTLTISSLQPEDFATYYCQQSYSTPWTFGQGTKVEIK
notes: E. coli supernatant scFv
Turning to B6, the binding entry in test [2] and in test [3] was “binds” in each case.

B7: 160_01_F1 scFv (scFv, V domains shown, not shown: small tags and cut ends)
VH: EVRLVQSGAEVKKPGASVKVSCKVSGYTLTELSMHWVRQAPGKGLEWMGGFDPEDGETIYAQKFQGRVTMTEDTSTDTAYMELSSLRSEDTAVYYCATAQSPWSGMTYWGQGTLVTVSS
VL: DIQMTQSPASLPTSVGDRVTITCRASQYIQGFLNWYQQKPGKAPRLLIYAASTLQDGVPSRFSGSGYGTDFTLTISSLQPEDFATYYCQQSYSTPWTFGQGTKVEIK
notes: E. coli supernatant scFv
B7: the binding result in test [2] and in test [3] was “binds” each time.

B8: 162_02_D3 scFv (scFv, V domains shown, not shown: small tags and cut ends)
VH: EVRLVQSGAEVKKPGASVKVSCKVSGYTLTELSMHWVRQAPGKGLEWMGGFDPEDGETIYAQKFQGRVTMTEDTSTDTAYMELSSLRSEDTAVYYCATAQIHPLGLTYWGQGTLVTVSS
VL: DIQMTQSPASLPTSVGDRVTITCRASQYIQGFLNWYQQKPGKAPRLLIYAASTLQDGVPSRFSGSGYGTDFTLTISSLQPEDFATYYCQQSYSTPWTFGQGTKVEIK
notes: E. coli supernatant scFv
Regarding B8, the binding entry in test [2] and in test [3] was “binds” throughout.

B9: 161_01_C09 scFv (scFv, V domains shown, not shown: small tags and cut ends)
VH: EVRLVQSGAEVKKPGASVKVSCKVSGYTLTELSMHWVRQAPGKGLEWMGGFDPEDGETIYAQKFQGRVTMTEDTSTDTAYMELSSLRSEDTAVYYCATAQLPYLAQTYWGQGTLVTVSS
VL: DIQMTQSPASLPTSVGDRVTITCRASQYIQGFLNWYQQKPGKAPRLLIYAASTLQDGVPSRFSGSGYGTDFTLTISSLQPEDFATYYCQQSYSTPWTFGQGTKVEIK
notes: E. coli supernatant scFv
As for B9, the binding entry in test [2] and in test [3] was “binds” throughout.

B10: 161_01_H10 scFv (scFv, V domains shown, not shown: small tags and cut ends)
VH: EVRLVQSGAEVKKPGASVKVSCKVSGYTLTELSMHWVRQAPGKGLEWMGGFDPEDGETIYAQKFQGRVTMTEDTSTDTAYMELSSLRSEDTAVYYCATAQPVWAPGTYWGQGTLVTVSS
VL: DIQMTQSPASLPTSVGDRVTITCRASQYIQGFLNWYQQKPGKAPRLLIYAASTLQDGVPSRFSGSGYGTDFTLTISSLQPEDFATYYCQQSYSTPWTFGQGTKVEIK
notes: E. coli supernatant scFv
On to B10, for which the binding entry in test [2] and in test [3] was “binds” each time.

B11: 160_01_H4 scFv (scFv, V domains shown, not shown: small tags and cut ends)
VH: EVRLVQSGAEVKKPGASVKVSCKVSGYTLTELSMHWVRQAPGKGLEWMGGFDPEDGETIYAQKFQGRVTMTEDTSTDTAYMELSSLRSEDTAVYYCATGRFVWEALTYWGQGTLVTVSS
VL: DIQMTQSPASLPTSVGDRVTITCRASQYIQGFLNWYQQKPGKAPRLLIYAASTLQDGVPSRFSGSGYGTDFTLTISSLQPEDFATYYCQQSYSTPWTFGQGTKVEIK
notes: E. coli supernatant scFv
With B11, the binding entry in test [2] and in test [3] was “binds” throughout.

B12: 161_01_A12 scFv (scFv, V domains shown, not shown: small tags and cut ends)
VH: EVRLVQSGAEVKKPGASVKVSCKVSGYTLTELSMHWVRQAPGKGLEWMGGFDPEDGETIYAQKFQGRVTMTEDTSTDTAYMELSSLRSEDTAVYYCATAQPTALANTYWGQGTLVTVSS
VL: DIQMTQSPASLPTSVGDRVTITCRASQYIQGFLNWYQQKPGKAPRLLIYAASTLQDGVPSRFSGSGYGTDFTLTISSLQPEDFATYYCQQSYSTPWTFGQGTKVEIK
notes: E. coli supernatant scFv
In the case of B12, the binding result in test [2] and in test [3] was “binds” each time.

B13: 161_01_F6 scFv (scFv, V domains shown, not shown: small tags and cut ends)
VH: EVRLVQSGAEVKKPGASVKVSCKVSGYTLTELSMHWVRQAPGKGLEWMGGFDPEDGETIYAQKFQGRVTMTEDTSTDTAYMELSSLRSEDTAVYYCATAQKENIANRHWGQGTLVTVSS
VL: DIQMTQSPASLPTSVGDRVTITCRASQYIQGFLNWYQQKPGKAPRLLIYAASTLQDGVPSRFSGSGYGTDFTLTISSLQPEDFATYYCQQSYSTPWTFGQGTKVEIK
notes: E. coli supernatant scFv; also called 160_01_F6
B13: the binding result in test [2] and in test [3] was “binds” each time.

B14: 160_01_G2 scFv (scFv, V domains shown, not shown: small tags and cut ends)
VH: EVRLVQSGAEVKKPGASVKVSCKVSGYTLTELSMHWVRQAPGKGLEWMGGFDPEDGETIYAQKFQGRVTMTEDTSTDTAYMELSSLRSEDTAVYYCATYTLDNMALTYWGQGTLVTVSS
VL: DIQMTQSPASLPTSVGDRVTITCRASQYIQGFLNWYQQKPGKAPRLLIYAASTLQDGVPSRFSGSGYGTDFTLTISSLQPEDFATYYCQQSYSTPWTFGQGTKVEIK
notes: E. coli supernatant scFv
On to B14, for which the binding entry in test [2] and in test [3] was “binds” each time.

B15: 161_01_C11 scFv (scFv, V domains shown, not shown: small tags and cut ends)
VH: EVRLVQSGAEVKKPGASVKVSCKVSGYTLTELSMHWVRQAPGKGLEWMGGFDPEDGETIYAQKFQGRVTMTEDTSTDTAYMELSSLRSEDTAVYYCATAQKEWLPDVTWGQGTLVTVSS
VL: DIQMTQSPASLPTSVGDRVTITCRASQYIQGFLNWYQQKPGKAPRLLIYAASTLQDGVPSRFSGSGYGTDFTLTISSLQPEDFATYYCQQSYSTPWTFGQGTKVEIK
notes: E. coli supernatant scFv
Regarding B15, the binding entry in test [2] and in test [3] was “binds” each time.

The values above are taken from patent US20170306005A1 (NASCIENT, published 2017).
